Data taken from PubChem BioAssay AID1508600 (Functional Genomics Laboratory (NCATS/FGL), 2020).
About 3,700 (7%) of roughly 53,000 sequences were called active.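 Rule for the calls: active = gene knockdowns whose robust z-score for IL-1 alpha signal is at least 2 or at most -2, so actives lie on both sides; inactive = the rest.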 Some of the results follow.

Experiment: Components of the Cytosolic LPS Sensing Pathway: Gene Identification via Genome-wide siRNA Screen;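 note: robust z of the log signal after scaling to non-targeting control siRNA wells of the plate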
Conditions: RAW264.7 macrophages, IL-1a HTRF, actives lie on both sides, screened at 100 nM (by protocol), cells primed 5 h with Pam3CSK4 first
In short: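 RAW264.7 mouse macrophages reverse-transfected with single siRNAs (100 nM final) for 48h, primed with Pam3CSK4 for 5 hours, then transfected with LipidA for 24 hour. Supernatant IL-1a read by HTRF; values normalized to negative-control median, log-transformed robust z-scores.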
For GGACUGUCAGUACUGUCAATT against Agr3, the z-score was inactive: 0.445. With CGAAUGACUCGUUUGUUAATT against Samt3 the z-score was inactive: 1.22. With GCAUCAAGCAGAAAAGAGGTT against Gm5458 the z-score was inactive: -1.16. With GCUAUUGGAGAUAUAAUGGTT against Ace the z-score was inactive: 1.58. For GGAGGAAUACAAAUUCAAGTT against Vamp5, the z-score was inactive: 1.37. With GGACAGCACAAUUACCUUUTT against Nr3c1 the z-score was inactive: -0.299. For GCUCUGUCAGUGAAUGUGATT against Pkd1l2, the z-score was inactive: -0.516. For GGUUGUACUCUACACCAAGTT against Crtac1, the z-score was inactive: -0.705. For GCAACAAACUGAGCAAAAATT against Exph5, the z-score was inactive: -1.64. In the case of GGCAGCAAAAAGGUGACGCTT against Cdk5r2, the z-score is reported as inactive: -0.522. With GCGCCUUAACCAAGAAGUUTT against Cox18 the z-score was active: 2.84. For GGAGGCUUCAUUCUGCUUUTT against Rab11fip5, the z-score was inactive: 0.401. For GGAGCUGAUCCUUAACUUATT against Adam1b, the z-score was inactive: 0.526. For CGUGAUUCUAGUAAGAGAGTT against Mbd1, the z-score was inactive: -0.863. In the case of CCGAUGAUGAGAUUAAUAUTT against Ophn1, the z-score is reported as inactive: -1.16. For GGCCAUUAACAUCACCAACTT against Csnk2a2, the z-score was inactive: -0.0869. In the case of GGUUGUCACCCUGACGGAATT against Cox4i2, the z-score is reported as inactive: -1.19. For GGGUGGACUCAGUGCUUCUTT against Hoxd3, the z-score was inactive: -0.593. With “GGUUGUGUUUUCAAGAAUUTT against 4921507P07Rik” the z-score was inactive: 0.27. With GGCUAGUCACCUUUGUAGCTT against Mmrn2 the z-score was inactive: 0.356. With CCUUAAUUGGGUUGAAUUCTT against Olfr878 the z-score was active: 2.44. With GGUCCUAUCUUCCUAUCAUTT against Smtnl2 the z-score was inactive: 0.783. In the case of GCACCUCUCCAUGUACAAGTT against Iba57, the z-score is reported as inactive: 0.938. In the case of GGAACAGGAAGAAAGAAAATT against Ube2e3, the z-score is reported as inactive: -0.267. For CGUGCUGUUGUGUAAUUUCTT against Wdr37, the z-score was inactive: 1.13. For GGAAUGUCGAAGAAAAUGCTT against Adam15, the z-score was inactive: -0.197. In the case of GGAAACCACAUAGAAUAAUTT against Rtp1, the z-score is reported as inactive: 0.845. For CAAUACAUUGAUAGCAAAUTT against Vmn1r206, the z-score was inactive: -0.123. With GGCUCUUUGCGAAAAUGGATT against Rnaseh2a the z-score was inactive: -0.889. For GGAUCAGAUGAUAAACCAUTT against Ttll3, the z-score was inactive: 0.109. For UAGUCACAAGGUUUGAAACTT against Fbxw24, the z-score was inactive: -0.822. For GGGAAAACCCUUUAUUCAGTT against Tmod4, the z-score was inactive: 0.869. In the case of GGGAUUUCAUCUUUGAAAGTT against Uqcrq, the z-score is reported as inactive: 0.114. With GGUAUAGAACUGAAGAAGUTT against Dnajc28 the z-score was inactive: -0.199. For GGAAGCCUAGUUUUUUUAATT against Csnk2a1, the z-score was active: 2.89. For “CCUGACUUGCCAUGUAAACTT against F830045P16Rik”, the z-score was inactive: 0.703. With GGGCCUAAGAAGCAUUACUTT against Ndufb11 the z-score was inactive: 0.0545. For CCGUACCUACAAGUUCACUTT against Fndc11, the z-score was inactive: 0.302. For CGGUCUAUGAAAGUUAUUCTT against Mcm9, the z-score was inactive: 0.19. In the case of GGUGCAUAUGAGGUAUAUUTT against Nt5e, the z-score is reported as inactive: 0.729. In the case of CCACUCAAGAUCGAUACCUTT against Fgd1, the z-score is reported as inactive: 0.167. For GGAUAUUCCCAAGUCUUUATT against Cyp2e1, the z-score was inactive: 0.423. In the case of GCUGAAGUUCGUACCCUACTT against Osbp2, the z-score is reported as active: -2.42. In the case of GCGGUUAGCACAAUGUGAATT against Ppp2cb, the z-score is reported as inactive: -0.577. In the case of GGAAGAAUUAAUGAAUACCTT against Ncoa1, the z-score is reported as inactive: 1.36. In the case of GGACAUUUCUGACAAAAAGTT against Cab39, the z-score is reported as inactive: -1.18. In the case of GGAUAAGAAAACUGAAGAATT against Tex16, the z-score is reported as inactive: 1.4. With GCUCUACGAAAAGAAAAUCTT against Emd the z-score was inactive: -0.987. In the case of GGCAGUUGAAUUGUUUGAGTT against Dact1, the z-score is reported as inactive: -0.91. In the case of GGAGUGUGGAAUUUAAUACTT against Cstf2t, the z-score is reported as inactive: -0.563. In the case of GGUACAAAGUGAAAUAGCUTT against Rnf34, the z-score is reported as inactive: 0.391. With GGUUGGACAGAAACAUCAGTT against Rab29 the z-score was inactive: 0.399. For GCAACAUAUCGGCAGAUGATT against Cpsf3, the z-score was inactive: 0.486. For CCUAUUCUUAACACCCUUGTT against Tfr2, the z-score was inactive: 0.891. With GGAGAUGUUUACAUGUAUUTT against Mboat1 the z-score was inactive: 0.766. For CCUGCUCAUCAUUCUUCUCTT against Olfr50, the z-score was inactive: -0.848. For GGGUUUUCAAAGACAAGAUTT against Frmd6, the z-score was inactive: 1.47. With GGACCCUGCUUUCUCUGCUTT against Kif26b the z-score was inactive: -0.791. With CCAUGGUUGCCAUAUAUUUTT against Pex19 the z-score was inactive: -0.11. For CCAAUCAUGGACUUUAUAATT against Hormad1, the z-score was inactive: -0.362. In the case of CCACGGAGAUGAAAUGCCUTT against Uck2, the z-score is reported as inactive: -0.831. With GGGACUUCAGACAGUUAUCTT against Ess2 the z-score was inactive: 1.69. In the case of GCUGUUCUAAAUCCAAACCTT against Setx, the z-score is reported as inactive: -0.645. In the case of CCUCCUUCACCAACUUAAATT against Rab33a, the z-score is reported as inactive: -0.248. For GGAGAGAACAUUAAAGAUATT against Mtmr2, the z-score was inactive: -0.36. In the case of GGAGAAUAUUCUCUGUGGATT against Rab11fip5, the z-score is reported as active: -2.71. In the case of GCUAUUUGCACUGAAAUAGTT against Pld5, the z-score is reported as inactive: 0.0253. For GCUCUAAAGAGUCCCAAGATT against Nkap, the z-score was inactive: -0.161.
